Earlier results in patent publication US6645755B1, “VECTOR MODIFIED BY SEQUENCE CODING FOR A SEQUENCE OF AMINO ACIDS CONTAINED IN A MAMMALIAN PROTEIN HAVING THE BIOLOGICAL ACTIVITY OF A MEMBRANE RECEPTOR, EXPRESSION OF THIS SEQUENCE IN TRANSFORMED UNICELLULAR CULTURES BY MEANS OF THIS VECTOR, PROCEDURE FOR STUDYING LIGANDS RECOGNIZING THESE RECEPTORS” (Centre National de la Recherche Scientifique, priority 1988, dated 2003).

Target: mamm. β2AR
Details: reference mammalian tissues; cited from earlier work

Question: With `CC(C)NCC(O)COc1cccc2ccccc12` (stereo not shown) [propranolol] as the compound, how does the Ki read?
Answer: The Ki was 0.54 nM.
